The other results are listed elsewhere or left out.
Experiments:
Assay in all cases: log2 fold change, soluble protein after heating vs DMSO (PISA); higher = thermal stabilisation; K562 cells, 10 uM, 30 min; active = over 0.2 and 3.5 SD of the protein, either way, in both replicates (recomputed)
[1] = compound: NC(=O)Nc1cc(-c2cccc(F)c2)sc1C(=O)N[C@H]1CCCNC1
Procedure, shortened: (§1)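 Aliquots of K562 cells (2×10^6 cells/mL) treated with 10 μM compound for 30 min were heated for 3 min over 48°C-58°C. After pooling and extraction in PBS with 0.5% NP-40 at 4°C, soluble protein from a 21,000xg, 90 min spin was quantified by TMTpro 16plex LC-MS/MS with channel sums equalised. Thermal stability is expressed against control samples, from duplicates, as a log2 fold change.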

Sequences of proteins named here, by UniProt entry; tags and fusion partners are left off. A change or cut given only in a name is not applied to a line headed by its entry.
UniProt O75607: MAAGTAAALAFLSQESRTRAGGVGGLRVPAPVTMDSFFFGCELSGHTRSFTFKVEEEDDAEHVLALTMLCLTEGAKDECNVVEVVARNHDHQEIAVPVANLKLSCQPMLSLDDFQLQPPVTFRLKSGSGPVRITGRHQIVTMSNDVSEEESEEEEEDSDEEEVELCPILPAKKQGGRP
UniProt Q7RTP0: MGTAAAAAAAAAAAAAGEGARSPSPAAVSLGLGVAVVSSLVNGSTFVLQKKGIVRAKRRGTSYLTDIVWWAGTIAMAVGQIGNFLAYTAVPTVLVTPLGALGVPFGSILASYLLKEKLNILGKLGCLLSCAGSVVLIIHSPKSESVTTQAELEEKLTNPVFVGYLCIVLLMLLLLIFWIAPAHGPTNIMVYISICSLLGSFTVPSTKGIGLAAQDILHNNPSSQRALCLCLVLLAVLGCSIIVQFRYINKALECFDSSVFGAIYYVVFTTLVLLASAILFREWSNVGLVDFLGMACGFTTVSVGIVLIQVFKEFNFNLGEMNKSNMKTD
UniProt P15559, whole entry, looked up: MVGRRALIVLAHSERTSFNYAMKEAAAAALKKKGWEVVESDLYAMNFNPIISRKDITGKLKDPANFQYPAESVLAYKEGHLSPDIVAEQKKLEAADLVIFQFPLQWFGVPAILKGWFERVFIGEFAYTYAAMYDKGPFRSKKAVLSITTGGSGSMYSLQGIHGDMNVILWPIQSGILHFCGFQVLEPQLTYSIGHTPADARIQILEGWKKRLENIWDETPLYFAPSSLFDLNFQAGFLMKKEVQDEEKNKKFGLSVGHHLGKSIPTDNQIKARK
UniProt Q9Y221: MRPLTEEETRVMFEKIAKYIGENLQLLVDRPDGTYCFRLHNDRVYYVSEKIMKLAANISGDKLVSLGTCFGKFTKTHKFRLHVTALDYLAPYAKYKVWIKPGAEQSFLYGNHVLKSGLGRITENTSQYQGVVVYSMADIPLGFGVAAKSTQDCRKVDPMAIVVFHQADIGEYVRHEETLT
UniProt P24468: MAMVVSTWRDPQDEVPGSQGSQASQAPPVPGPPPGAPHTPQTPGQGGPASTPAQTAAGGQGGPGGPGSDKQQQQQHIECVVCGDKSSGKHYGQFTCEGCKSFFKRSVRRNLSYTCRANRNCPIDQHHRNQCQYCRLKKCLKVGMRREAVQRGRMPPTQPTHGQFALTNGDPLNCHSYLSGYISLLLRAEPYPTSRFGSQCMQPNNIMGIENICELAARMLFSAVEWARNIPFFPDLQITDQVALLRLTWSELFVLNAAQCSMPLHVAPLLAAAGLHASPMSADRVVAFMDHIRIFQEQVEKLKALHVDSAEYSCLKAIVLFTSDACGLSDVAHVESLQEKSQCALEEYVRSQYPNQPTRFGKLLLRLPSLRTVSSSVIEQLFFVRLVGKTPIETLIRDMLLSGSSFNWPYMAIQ
UniProt P46459: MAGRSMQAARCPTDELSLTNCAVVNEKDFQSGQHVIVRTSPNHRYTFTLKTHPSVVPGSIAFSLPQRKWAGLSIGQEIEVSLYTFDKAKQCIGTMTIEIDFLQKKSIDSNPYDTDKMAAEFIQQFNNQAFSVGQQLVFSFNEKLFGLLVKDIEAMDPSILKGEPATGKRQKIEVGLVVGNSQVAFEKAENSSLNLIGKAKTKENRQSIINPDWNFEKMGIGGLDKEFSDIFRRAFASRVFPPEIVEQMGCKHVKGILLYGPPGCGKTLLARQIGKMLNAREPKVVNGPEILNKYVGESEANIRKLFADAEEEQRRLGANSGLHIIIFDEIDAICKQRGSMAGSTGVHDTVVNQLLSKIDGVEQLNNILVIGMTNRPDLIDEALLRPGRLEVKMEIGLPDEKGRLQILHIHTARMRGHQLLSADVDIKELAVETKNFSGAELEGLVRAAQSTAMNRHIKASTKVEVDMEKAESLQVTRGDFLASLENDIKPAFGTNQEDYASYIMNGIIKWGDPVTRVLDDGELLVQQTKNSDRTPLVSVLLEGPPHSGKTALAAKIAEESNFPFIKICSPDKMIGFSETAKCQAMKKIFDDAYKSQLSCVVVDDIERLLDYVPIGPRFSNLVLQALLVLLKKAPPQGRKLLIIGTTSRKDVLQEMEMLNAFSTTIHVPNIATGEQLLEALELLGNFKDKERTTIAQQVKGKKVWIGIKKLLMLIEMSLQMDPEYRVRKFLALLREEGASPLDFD
UniProt Q8WX92, whole entry, looked up: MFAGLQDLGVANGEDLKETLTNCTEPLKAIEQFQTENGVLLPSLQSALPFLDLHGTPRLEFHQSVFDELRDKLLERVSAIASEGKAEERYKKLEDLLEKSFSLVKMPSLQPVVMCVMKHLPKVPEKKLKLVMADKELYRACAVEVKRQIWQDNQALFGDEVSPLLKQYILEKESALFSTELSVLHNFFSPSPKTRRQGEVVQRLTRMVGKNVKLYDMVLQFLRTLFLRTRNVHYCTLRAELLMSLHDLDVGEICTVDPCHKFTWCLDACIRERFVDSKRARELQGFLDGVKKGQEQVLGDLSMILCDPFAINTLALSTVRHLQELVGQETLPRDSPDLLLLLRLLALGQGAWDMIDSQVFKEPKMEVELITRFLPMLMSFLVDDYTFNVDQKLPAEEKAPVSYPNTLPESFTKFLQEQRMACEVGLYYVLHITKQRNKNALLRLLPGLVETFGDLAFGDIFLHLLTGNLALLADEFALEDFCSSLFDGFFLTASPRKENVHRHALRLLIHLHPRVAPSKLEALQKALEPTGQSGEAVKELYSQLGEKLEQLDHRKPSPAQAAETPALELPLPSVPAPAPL
UniProt Q9NX02: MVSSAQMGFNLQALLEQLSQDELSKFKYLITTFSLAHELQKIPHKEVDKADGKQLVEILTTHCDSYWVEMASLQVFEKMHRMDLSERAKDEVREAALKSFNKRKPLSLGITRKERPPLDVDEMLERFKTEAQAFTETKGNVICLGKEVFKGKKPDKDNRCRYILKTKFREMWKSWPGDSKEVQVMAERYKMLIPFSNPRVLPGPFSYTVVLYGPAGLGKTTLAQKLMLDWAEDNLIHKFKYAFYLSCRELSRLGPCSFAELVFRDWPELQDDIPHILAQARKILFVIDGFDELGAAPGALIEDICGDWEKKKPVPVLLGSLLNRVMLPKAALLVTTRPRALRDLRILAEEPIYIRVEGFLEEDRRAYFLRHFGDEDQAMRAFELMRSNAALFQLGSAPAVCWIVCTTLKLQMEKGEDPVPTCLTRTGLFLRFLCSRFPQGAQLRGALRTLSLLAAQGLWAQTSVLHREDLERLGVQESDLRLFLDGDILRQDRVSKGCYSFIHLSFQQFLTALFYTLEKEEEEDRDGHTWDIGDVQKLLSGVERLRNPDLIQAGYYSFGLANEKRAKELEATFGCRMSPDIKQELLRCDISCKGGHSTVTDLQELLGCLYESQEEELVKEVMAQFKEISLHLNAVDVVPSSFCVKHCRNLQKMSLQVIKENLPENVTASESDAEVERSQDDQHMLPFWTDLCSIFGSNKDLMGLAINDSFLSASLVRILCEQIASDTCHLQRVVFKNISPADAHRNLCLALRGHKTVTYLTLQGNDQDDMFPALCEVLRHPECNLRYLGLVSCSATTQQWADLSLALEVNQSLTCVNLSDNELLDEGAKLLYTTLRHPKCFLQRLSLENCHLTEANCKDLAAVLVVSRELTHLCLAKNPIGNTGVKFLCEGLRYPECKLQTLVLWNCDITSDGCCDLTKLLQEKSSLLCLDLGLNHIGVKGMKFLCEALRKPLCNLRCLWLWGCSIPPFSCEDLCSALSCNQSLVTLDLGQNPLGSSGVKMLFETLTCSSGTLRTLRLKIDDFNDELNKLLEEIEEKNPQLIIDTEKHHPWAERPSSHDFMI
UniProt Q9BYG3: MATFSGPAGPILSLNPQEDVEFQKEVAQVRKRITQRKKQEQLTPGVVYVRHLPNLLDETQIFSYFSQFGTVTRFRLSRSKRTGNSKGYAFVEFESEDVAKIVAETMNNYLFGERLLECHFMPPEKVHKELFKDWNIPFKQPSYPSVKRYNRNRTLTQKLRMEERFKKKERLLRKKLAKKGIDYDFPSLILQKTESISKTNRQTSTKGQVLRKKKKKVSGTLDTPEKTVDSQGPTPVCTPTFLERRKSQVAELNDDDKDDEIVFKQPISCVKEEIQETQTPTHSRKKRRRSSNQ
UniProt Q96IY1: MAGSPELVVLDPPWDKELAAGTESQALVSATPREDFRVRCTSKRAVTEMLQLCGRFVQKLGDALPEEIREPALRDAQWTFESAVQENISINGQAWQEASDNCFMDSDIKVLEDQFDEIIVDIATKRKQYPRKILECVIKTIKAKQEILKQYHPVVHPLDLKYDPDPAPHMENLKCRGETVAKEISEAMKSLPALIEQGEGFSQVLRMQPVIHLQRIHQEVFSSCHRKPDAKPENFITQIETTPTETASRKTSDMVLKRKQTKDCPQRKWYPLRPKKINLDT
UniProt P23511, whole entry, looked up: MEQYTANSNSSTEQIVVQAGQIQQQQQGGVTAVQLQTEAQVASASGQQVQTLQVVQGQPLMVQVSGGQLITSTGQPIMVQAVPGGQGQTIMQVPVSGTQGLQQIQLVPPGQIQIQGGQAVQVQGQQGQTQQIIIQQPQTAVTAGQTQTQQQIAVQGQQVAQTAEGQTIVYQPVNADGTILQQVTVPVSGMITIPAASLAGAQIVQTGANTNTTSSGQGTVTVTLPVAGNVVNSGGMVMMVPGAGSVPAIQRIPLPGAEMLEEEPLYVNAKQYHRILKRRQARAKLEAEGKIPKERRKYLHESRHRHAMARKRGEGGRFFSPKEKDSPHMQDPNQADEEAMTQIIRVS
UniProt P06748, whole entry, looked up: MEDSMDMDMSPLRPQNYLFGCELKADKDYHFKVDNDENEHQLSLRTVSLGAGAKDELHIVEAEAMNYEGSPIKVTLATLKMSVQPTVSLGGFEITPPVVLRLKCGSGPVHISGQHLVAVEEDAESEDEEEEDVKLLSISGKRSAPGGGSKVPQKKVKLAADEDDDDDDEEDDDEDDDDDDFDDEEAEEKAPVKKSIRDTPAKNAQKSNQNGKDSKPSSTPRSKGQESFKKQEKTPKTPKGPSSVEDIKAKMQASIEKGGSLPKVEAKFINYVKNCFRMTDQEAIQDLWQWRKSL
UniProt Q86WQ0: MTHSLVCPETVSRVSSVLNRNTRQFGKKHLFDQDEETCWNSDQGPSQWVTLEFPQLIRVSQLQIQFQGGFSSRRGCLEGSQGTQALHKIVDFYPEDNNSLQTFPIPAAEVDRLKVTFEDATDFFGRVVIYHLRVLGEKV
UniProt Q7RTR2: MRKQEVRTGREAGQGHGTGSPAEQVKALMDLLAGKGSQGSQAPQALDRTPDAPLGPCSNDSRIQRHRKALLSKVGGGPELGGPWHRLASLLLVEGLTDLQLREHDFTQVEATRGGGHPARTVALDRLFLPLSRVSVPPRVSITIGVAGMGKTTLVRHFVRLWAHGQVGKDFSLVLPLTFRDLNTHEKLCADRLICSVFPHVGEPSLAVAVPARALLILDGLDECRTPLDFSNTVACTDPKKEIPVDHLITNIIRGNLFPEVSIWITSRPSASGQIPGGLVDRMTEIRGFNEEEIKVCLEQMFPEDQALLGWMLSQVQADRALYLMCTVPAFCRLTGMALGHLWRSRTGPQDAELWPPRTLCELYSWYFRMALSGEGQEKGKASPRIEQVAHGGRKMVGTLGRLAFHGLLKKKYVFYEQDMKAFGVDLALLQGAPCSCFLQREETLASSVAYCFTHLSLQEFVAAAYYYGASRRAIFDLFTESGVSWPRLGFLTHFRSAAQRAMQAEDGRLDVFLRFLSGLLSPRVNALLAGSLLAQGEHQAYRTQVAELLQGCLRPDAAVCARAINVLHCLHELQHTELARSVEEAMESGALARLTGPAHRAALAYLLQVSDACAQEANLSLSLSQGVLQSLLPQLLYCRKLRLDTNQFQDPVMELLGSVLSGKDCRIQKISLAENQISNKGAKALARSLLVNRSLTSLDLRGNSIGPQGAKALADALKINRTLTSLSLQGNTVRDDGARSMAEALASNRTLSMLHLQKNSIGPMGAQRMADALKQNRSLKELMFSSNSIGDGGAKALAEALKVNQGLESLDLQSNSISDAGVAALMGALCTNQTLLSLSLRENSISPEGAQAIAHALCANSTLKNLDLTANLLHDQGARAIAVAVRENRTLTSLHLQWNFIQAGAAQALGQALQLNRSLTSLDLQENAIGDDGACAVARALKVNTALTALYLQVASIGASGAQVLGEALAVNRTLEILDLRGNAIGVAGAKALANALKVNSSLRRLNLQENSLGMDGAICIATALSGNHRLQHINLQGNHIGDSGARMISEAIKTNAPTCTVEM
UniProt Q9UMY1: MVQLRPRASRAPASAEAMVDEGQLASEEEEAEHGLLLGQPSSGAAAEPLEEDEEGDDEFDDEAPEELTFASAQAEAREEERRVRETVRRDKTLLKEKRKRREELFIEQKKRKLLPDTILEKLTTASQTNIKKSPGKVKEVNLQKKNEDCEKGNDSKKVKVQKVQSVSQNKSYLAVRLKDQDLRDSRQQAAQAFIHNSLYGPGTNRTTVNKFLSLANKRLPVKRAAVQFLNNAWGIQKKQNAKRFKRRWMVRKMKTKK

[2] = compound: NC(=O)c1cnc(N[C@@H]2CCCC[C@@H]2N)nc1Nc1cccc(-n2nccn2)c1
Procedure, shortened: as §1

[3] = compound: NC1(c2ccc(-c3nc4ccn5c(=O)[nH]nc5c4cc3-c3ccccc3)cc2)CCC1
Procedure, shortened: as §1

[4] = compound: NCC(=O)Nc1ccc(-n2nc(C(F)(F)F)cc2-c2ccc3c(ccc4ccccc43)c2)cc1
Procedure, shortened: as §1

[5] = compound: Nc1ccccc1NC(=O)c1ccc(CNC(=O)OCc2cccnc2)cc1 [entinostat]
Procedure, shortened: as §1

[6] = compound: O=C(CCCCCCC(=O)Nc1ccccc1)NO [vorinostat]
Procedure, shortened: as §1

[7] = compound: O=C(CCCCCCNC(=O)c1cnc(N(c2ccccc2)c2ccccc2Cl)nc1)NO [citarinostat]
Procedure, shortened: as §1

[8] = compound: O=C(O)c1ccc2c(c1)nc(Nc1cccc(Cl)c1)c1ccncc12 [silmitasertib]
Procedure, shortened: as §1

[9] = compound: c1cc(OCCN2CCCCC2)cc(-c2n[nH]c3ccc(-c4nnc[nH]4)cc23)c1
Procedure, shortened: as §1

[10] = compound: O=C1NC(=O)C(c2cnc3ccccn23)=C1c1cn2c3c(cc(F)cc13)CN(C(=O)N1CCCCC1)CC2
Procedure, shortened: as §1

Measured: log2 fold change

NPM3 (UniProt O75607)
inactive: [1] 0.029 | [2] 0.02 | [3] 0.216 | [4] 0.017 | [5] -0.019 | [6] -0.023 | [7] -0.059 | [8] 0.137 | [9] -0.101

NIPA1 (UniProt Q7RTP0)
inactive: [1] -0.014 | [2] -0.011 | [3] -0.083 | [4] 0.012 | [5] 0.076 | [7] -0.101 | [8] 0.028 | [9] -0.056

NQO1 (UniProt P15559)
inactive: [1] -0.032 | [2] 0.039 | [3] -0.018 | [4] -0.034 | [5] -0.013 | [6] -0.024 | [7] 0.009 | [8] -0.058 | [10] -0.149 | [9] 0.068

NELFE isoform 3 (UniProt P18615)
inactive: [1] 0.117 | [2] -0.01 | [3] 0.002 | [4] -0.044 | [5] 0.019 | [6] 0.053 | [7] 0.01 | [8] 0.009 | [10] 0.043 | [9] -0.034

NIP7 (UniProt Q9Y221)
inactive: [1] 0.169 | [2] -0.026 | [3] 0.178 | [4] 0.148 | [5] -0.047 | [6] -0.024 | [7] -0.107 | [8] 0.135 | [10] 0.383 | [9] -0.113

NR2F2 (UniProt P24468)
inactive: [1] 0.029 | [2] -0.1 | [3] -0.135 | [4] -0.032 | [5] -0.01 | [6] -0.061 | [7] -0.038 | [8] -0.031 | [10] -0.002 | [9] -0.049

NSF (UniProt P46459)
inactive: [1] -0.071 | [2] -0.028 | [3] -0.138 | [4] -0.045 | [5] 0.019 | [6] 0.03 | [7] 0.019 | [8] -0.003 | [10] -0.009 | [9] -0.043

NELFB isoform 2 (UniProt Q8WX92)
inactive: [1] -0.021 | [2] -0.016 | [3] -0.074 | [4] -0.107 | [5] 0.062 | [6] 0.059 | [7] 0.102 | [8] 0.021 | [10] -0.086 | [9] -0.001

NLRP2 (UniProt Q9NX02)
inactive: [1] -0.094 | [2] -0.131 | [3] -0.134 | [4] -0.061 | [5] -0.01 | [6] 0.066 | [7] 0.056 | [8] 0.205 | [10] 0.05 | [9] -0.041

NSD1 (UniProt Q96L73)
inactive: [1] -0.038 | [2] 0.132 | [3] -0.012 | [5] -0.032 | [6] -0.087 | [7] 0.078 | [8] 0.061 | [9] -0.037

NGLY1 (UniProt Q96IV0)
inactive: [1] -0.073 | [2] 0.059 | [3] -0.151 | [4] -0.109 | [5] 0.025 | [6] 0.008 | [7] 0.079 | [8] 0.079 | [10] 0.059 | [9] -0.059

NOL12 (UniProt Q9UGY1)
inactive: [1] 0.151 | [2] 0.159 | [3] 0.281 | [4] 0.197 | [5] -0.017 | [6] -0.104 | [8] 0.228 | [10] 0.375

NIFK (UniProt Q9BYG3)
inactive: [1] 0.014 | [2] 0.067 | [3] 0.097 | [4] 0.243 | [5] -0.085 | [6] -0.122 | [7] -0.051 | [8] 0.171 | [10] 0.338 | [9] -0.124

NEK7 (UniProt Q8TDX7)
inactive: [1] 0.008 | [2] -0.042 | [3] -0.069 | [4] -0.028 | [5] -0.041 | [6] 0.067 | [7] 0.017 | [8] 0.025 | [10] -0.027 | [9] -0.026

NRM (UniProt Q8IXM6)
inactive: [1] 0.004 | [2] -0.034 | [3] -0.07 | [4] 0.152 | [5] -0.049 | [6] 0.12 | [7] 0.058 | [8] 0.026 | [10] 0.095 | [9] -0.073

NSL1 (UniProt Q96IY1)
inactive: [1] 0.034 | [2] -0.017 | [3] -0.057 | [4] -0.042 | [5] 0.125 | [6] 0.071 | [7] -0.113 | [8] -0.038 | [9] 0.035

NFAT5 isoform 5 (UniProt O94916)
inactive: [1] -0.085 | [2] 0.299 | [3] -0.165 | [4] 0.072 | [5] -0.029 | [6] -0.051 | [7] 0 | [8] -0.045 | [10] 0.153 | [9] -0.078

NRBP1 (UniProt Q9UHY1)
inactive: [1] -0.029 | [2] -0.037 | [3] -0.054 | [4] -0.033 | [5] 0.011 | [6] -0.001 | [7] 0.037 | [8] 0.002 | [10] -0.055 | [9] -0.002

NFYA (UniProt P23511)
inactive: [1] -0.263 | [2] -0.083 | [3] -0.016 | [4] 0.054 | [5] -0.331 | [6] 0.057 | [7] -0.006 | [8] -0.006 | [10] -0.048 | [9] -0.056

NPM1 (UniProt P06748)
inactive: [1] 0.13 | [2] 0.073 | [3] 0.409 | [4] 0.146 | [5] 0 | [6] -0.005 | [7] -0.12 | [8] 0.177 | [10] 0.243 | [9] -0.154

2 consecutive records from above:
NFAT5 isoform 5 (UniProt O94916)
inactive: [1] -0.085 | [2] 0.299 | [3] -0.165 | [4] 0.072 | [5] -0.029 | [6] -0.051 | [7] 0 | [8] -0.045 | [10] 0.153 | [9] -0.078

NRBP1 (UniProt Q9UHY1)
inactive: [1] -0.029 | [2] -0.037 | [3] -0.054 | [4] -0.033 | [5] 0.011 | [6] -0.001 | [7] 0.037 | [8] 0.002 | [10] -0.055 | [9] -0.002

Additional entries follow.

NR2C2AP isoform 2 (UniProt Q86WQ0)
inactive: [1] -0.082 | [2] -0.131 | [3] -0.05 | [4] -0.094 | [5] -0.02 | [6] -0.027 | [7] 0.079 | [8] 0.062 | [10] -0.092 | [9] -0.035

NIPSNAP3B (UniProt Q9BS92)
inactive: [1] 0.279 | [2] 0.011 | [3] -0.069 | [4] 0.053 | [5] -0.001 | [6] -0.064 | [7] 0.137 | [8] -0.022 | [9] -0.09

NR2C1 (UniProt P13056)
inactive: [1] -0.096 | [2] -0.055 | [3] 0.022 | [4] 0.503 | [5] -0.023 | [8] -0.082 | [10] 0.012

NPC1L1 (UniProt Q9UHC9)
inactive: [1] 0.011 | [2] -0.038 | [3] -0.104 | [4] -0.024 | [5] -0.011 | [7] 0.036 | [8] -0.028 | [9] 0.054

NFYB (UniProt P25208)
inactive: [1] -0.022 | [2] 0.102 | [3] -0.074 | [4] 0.069 | [5] -0.001 | [6] -0.038 | [7] -0.006 | [8] 0.043 | [9] 0.033

NLRC3 isoform 2 (UniProt Q7RTR2)
inactive: [1] -0.494 | [2] -0.334 | [3] -0.206 | [4] -0.359 | [5] -0.268 | [7] -0.058 | [8] 0.306 | [10] -0.551 | [9] -0.131

NOL7 (UniProt Q9UMY1)
inactive: [1] 0.107 | [2] 0.131 | [3] 0.316 | [4] 0.177 | [5] -0.079 | [6] -0.042 | [7] -0.101 | [8] 0.166 | [10] 0.121 | [9] -0.218

NOL6 (UniProt Q9H6R4)
inactive: [1] 0.117 | [2] 0.076 | [3] 0.325 | [4] 0.015 | [5] 0.068 | [6] 0.088 | [8] 0.303 | [10] 0.099

NOTCH2 (UniProt Q04721)
inactive: [2] 0.077
